In publication PMC7229842, “Molecular basis of the multifaceted functions of human leucyl-tRNA synthetase in protein synthesis and beyond” (Nucleic Acids Research, 2020):
These are yes or no findings as the source states them, for the method shown. Some entries that bind do so weakly or less than the wild type.

Protein sequences, listed by entry. Tags and fused reporters are not part of them. Lines headed by an entry give the natural chain unless they say otherwise; changes in a name come on top.
UniProt Q15046: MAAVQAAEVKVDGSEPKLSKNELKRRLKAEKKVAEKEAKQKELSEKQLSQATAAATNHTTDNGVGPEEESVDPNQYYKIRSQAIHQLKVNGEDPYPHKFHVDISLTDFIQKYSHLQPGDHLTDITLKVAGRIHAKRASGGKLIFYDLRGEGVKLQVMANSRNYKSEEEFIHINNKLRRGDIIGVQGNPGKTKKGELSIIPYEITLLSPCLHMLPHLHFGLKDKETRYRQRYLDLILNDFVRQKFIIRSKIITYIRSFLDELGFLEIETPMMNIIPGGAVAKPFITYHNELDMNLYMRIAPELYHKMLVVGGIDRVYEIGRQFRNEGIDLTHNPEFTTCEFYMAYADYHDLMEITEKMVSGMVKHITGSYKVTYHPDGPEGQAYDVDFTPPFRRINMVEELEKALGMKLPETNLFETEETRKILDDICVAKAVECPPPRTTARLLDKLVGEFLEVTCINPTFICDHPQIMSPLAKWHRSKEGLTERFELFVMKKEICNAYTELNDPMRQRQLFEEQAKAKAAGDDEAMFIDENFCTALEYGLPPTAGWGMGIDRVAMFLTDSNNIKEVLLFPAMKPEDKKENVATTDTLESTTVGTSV

Assays:
[1] = target: T1, MRS-AIMP3 complex (human cytosolic methionyl-tRNA synthetase co-expressed with AIMP3) (human) (UniProt P56192+O43324); test: pull-down; in vitro assembly of the MSC as in a2 but lacking IRS; anti-Flag beads on MRS-Flag; both purified
T1 sequence 1: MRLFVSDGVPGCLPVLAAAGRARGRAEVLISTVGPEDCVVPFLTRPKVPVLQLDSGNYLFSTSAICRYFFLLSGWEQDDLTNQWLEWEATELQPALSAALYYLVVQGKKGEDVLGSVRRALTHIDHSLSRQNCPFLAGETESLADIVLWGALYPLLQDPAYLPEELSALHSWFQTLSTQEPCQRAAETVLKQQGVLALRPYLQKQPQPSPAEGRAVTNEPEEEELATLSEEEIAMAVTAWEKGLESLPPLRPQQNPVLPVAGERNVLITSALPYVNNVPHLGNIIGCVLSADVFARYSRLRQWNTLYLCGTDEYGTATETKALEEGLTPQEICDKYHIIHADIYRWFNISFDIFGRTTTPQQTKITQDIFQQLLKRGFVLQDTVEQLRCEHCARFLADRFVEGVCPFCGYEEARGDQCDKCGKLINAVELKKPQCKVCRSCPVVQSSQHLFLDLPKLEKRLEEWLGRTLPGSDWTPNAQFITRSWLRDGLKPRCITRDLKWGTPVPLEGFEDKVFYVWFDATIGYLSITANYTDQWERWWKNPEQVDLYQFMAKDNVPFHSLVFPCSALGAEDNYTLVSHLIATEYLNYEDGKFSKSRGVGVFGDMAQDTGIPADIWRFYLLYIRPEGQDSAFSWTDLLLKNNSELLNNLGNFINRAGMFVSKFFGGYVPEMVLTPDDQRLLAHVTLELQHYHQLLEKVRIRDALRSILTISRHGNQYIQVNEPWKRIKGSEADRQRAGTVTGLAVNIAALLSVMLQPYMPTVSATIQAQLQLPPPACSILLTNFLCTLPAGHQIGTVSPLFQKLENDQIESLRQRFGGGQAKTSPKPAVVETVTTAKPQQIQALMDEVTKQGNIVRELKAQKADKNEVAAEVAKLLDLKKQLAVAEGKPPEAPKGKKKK
T1 sequence 2: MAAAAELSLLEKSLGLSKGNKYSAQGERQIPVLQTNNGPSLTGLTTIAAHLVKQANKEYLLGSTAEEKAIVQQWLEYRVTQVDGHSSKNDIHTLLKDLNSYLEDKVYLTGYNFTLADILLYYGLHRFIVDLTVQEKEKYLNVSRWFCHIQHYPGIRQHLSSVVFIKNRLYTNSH

[2] = target: T1, MRS-AIMP3 complex (human cytosolic methionyl-tRNA synthetase co-expressed with AIMP3) (human); test: pull-down; in vitro assembly of the MSC as in a2 but lacking hcLRS; anti-Flag beads on MRS-Flag; both purified
[3] = target: T1, MRS-AIMP3 complex (human cytosolic methionyl-tRNA synthetase co-expressed with AIMP3) (human); test: pull-down; in vitro assembly of the MSC: all 11 purified components mixed and incubated 2 h, pulled down with anti-Flag beads (only MRS has the Flag tag), checked by SDS-PAGE and gel filtration; both purified

Measured: binding

KRS-AIMP2 complex (human cytosolic lysyl-tRNA synthetase co-expressed with AIMP2) (from UniProt Q15046 1-597; Q13155 1-320)
binds: all assays above
